The values that follow come from patent US20260234281A1.

The chains behind the UniProt entries cited, without tags or fusion partners. Residues count along the entry.
UniProt P02786, residues 121-760: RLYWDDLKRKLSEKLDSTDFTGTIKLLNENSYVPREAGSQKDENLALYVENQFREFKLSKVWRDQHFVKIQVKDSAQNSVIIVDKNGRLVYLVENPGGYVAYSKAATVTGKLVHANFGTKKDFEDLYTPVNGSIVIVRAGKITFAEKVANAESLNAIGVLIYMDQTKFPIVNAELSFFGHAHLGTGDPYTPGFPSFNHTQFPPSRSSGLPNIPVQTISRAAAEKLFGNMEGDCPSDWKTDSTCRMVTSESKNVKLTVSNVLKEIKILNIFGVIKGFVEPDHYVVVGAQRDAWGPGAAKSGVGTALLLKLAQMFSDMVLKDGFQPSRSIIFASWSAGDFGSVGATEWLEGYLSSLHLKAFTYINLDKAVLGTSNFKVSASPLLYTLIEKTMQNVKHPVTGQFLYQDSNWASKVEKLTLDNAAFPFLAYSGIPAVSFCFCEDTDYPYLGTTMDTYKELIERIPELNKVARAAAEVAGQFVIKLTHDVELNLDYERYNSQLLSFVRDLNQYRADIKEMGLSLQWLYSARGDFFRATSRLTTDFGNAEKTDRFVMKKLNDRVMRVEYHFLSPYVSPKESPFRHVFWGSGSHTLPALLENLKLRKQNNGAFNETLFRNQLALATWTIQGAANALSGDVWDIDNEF

B1: Chimeric anti-human transferrin receptor antibody 128.1 (wild-type) (antibody, V domains shown)
VH: EVQLQQSGPELVKPGASMKISCKASGYSFTGYTMNWVKQSHGENLEWIGRINPHNGGTDYNQKFKDKAPLTVDKSSNTAYMELLSLTSEDSAVYYCARGYYYYSLDYWGQGTSVTVSS
VL: QIVLTQSPAIMSASPGEKVTMTCSASSSIDYIHWYQQKSGTSPKRWIYDTSKLASGVPARFSGSGSGTSYSLTISSMEPEDAATYYCHQRNSYPWTFGGGTRLEIR
B2: Humanized anti-human transferrin receptor antibody 128.1 (antibody, V domains shown)
VH: EVKLQQSGPELVKPGASVKMSCKASGYSFTGYTMNWVKQKPGQGLEWIGRINPHNGGTDYNQKFKDKATLTSDKSSSTAYMELSSLTSEDSAVYYCARGYYYYSLDYWGQGTTLTVSS
VL: B1 VL with S39P, P79A, R102K, R106K
B3: Humanized 128.1 antibody L11+H17 (antibody, V domains shown)
VH: QVQLVQSGAEVKKPGASVKVSCKASGYSFTGYTISWVRQAPGQGLEWMGWINPHNGGTNYAQKLQGRVTMTTDTSTSTAYMELRSLRSDDTAVYYCARGYYYYSLDYWGQGTSVTVSS
VL: DIQMTQSPSAMSASVGDRVTITCRASSSIDYLAWFQQKPGKVPKRLIYDTSSLQSGVPSRFSGSGSGTEFTLTISSLQPEDFATYYCHQRNSYPWTFGQGTRLEIK
B4: Humanized 128.1 antibody L20+H13 (antibody, V domains shown)
VH: B3 VH with S35N, P41T, N59G, L64F, T72R, D73N, T76I, R84S, D89E
VL: EIVLTQSPATLSLSPGERATLSCRASSSIDYLAWYQQKPGQAPRLLIYDTSSRATGIPDRFSGSGSGTDFTLTISRLEPEDFAVYYCHQRNSYPWTFGQGTRLEIK
B5: Humanized 128.1 antibody L7+H13 (antibody, V domains shown)
VH: B3 VH with S35N, P41T, N59G, L64F, T72R, D73N, T76I, R84S, D89E
VL: B3 VL with A10S, M11L, V42A, R45S, E69D
B6: Humanized 128.1 antibody L10+H16 (antibody, V domains shown)
VH: B3 VH with T91M
VL: B3 VL with A10S, M11L, A33G, F35Y, V42A, S76N
B7: Humanized 128.1 antibody L12+H20 (antibody, V domains shown)
VH: B3 VH with I34M, S35H, W50I, N59S, L64F, T72R, A79V, R84S, D89E
VL: B3 VL with D1A, M4L, A10S, M11L, F35Y, V42A, R45L, Q54E, E69D
B8: Humanized 128.1 antibody L9+H15 (antibody, V domains shown)
VH: B3 VH with S113T
VL: B3 VL with A10S, M11L, A33G, F35Y, V42A
B9: Humanized 128.1 antibody L2+H19 (antibody, V domains shown)
VH: B3 VH with T91M
VL: B3 VL with A10T, M11L, T22I, F35Y, V42A, R45L, Q54E, E80D
B10: Humanized 128.1 antibody L15+H20 (antibody, V domains shown)
VH: B3 VH with I34M, S35H, W50I, N59S, L64F, T72R, A79V, R84S, D89E
VL: B4 VL with S52N, D59A, S66P, R76S
B11: Humanized 128.1 antibody L21+H13 (antibody, V domains shown)
VH: B3 VH with S35N, P41T, N59G, L64F, T72R, D73N, T76I, R84S, D89E
VL: DIQMTQSPSTLSASVGDRVTITCSASSSIDYMHWYQQKPGKAPKLLIYDTSKLASGVPARFSGSGSGTEFTLTISSLQPDDFATYYCHQRNSYPWTFGQGTKVEVK

Where a chain is given by its changes, count along the chain named. No constants are given. Whether binding was seen depends on the method and setting. Some results given as binding are weak or reduced against the parent protein; the word gives no strength.

In one assay the target is Human transferrin receptor (TfR) protein, coated on ELISA plate (human) (UniProt P02786). The assay can be described thus: ELISA, human TfR coated at 2.5 ug/mL, HRP anti-human IgG detection. In general terms: In an ELISA, binding on a coated surface is turned into a signal by an enzyme label.
With B1, the binding entry was “binds”.

Take B2: the binding result is recorded as “binds”.

For another assay the target is unchanged. The assay is described as follows: affinity measurement against TfR protein with purified antibody (FIG. 12).
With B3, the binding entry is recorded as “binds”.

Regarding B4, the binding entry is recorded as “binds”. Consider B5, for which the binding entry was “binds”. The same measure, in the same setting: then B6, with “binds”; and B7, with “binds”; and B8, with “binds”. Take B9: the binding entry is recorded as “binds”. Still for that read-out and setting: then B10, with “binds”.

On to B11, for which the binding entry was “binds”.
